Measurements published in PMC10547647.
These are yes or no findings as the source states them, for the method shown. In cells and extracts the contact can be indirect. A result given as binding can be weak or reduced; the word gives no strength.

Experiments:
Assay in all cases: co-IP; endogenous proteins of BxPC-3; IP with anti-CDC25A, CDC25C, CHK1 or 14–3-3ξ antibody, rabbit IgG as negative control; Western blot
[1] = molecular target: T1, Cell division cycle 25A (CDC25A), endogenous (human (endogenous in BxPC-3)) (UniProt P30304)
T1 sequence: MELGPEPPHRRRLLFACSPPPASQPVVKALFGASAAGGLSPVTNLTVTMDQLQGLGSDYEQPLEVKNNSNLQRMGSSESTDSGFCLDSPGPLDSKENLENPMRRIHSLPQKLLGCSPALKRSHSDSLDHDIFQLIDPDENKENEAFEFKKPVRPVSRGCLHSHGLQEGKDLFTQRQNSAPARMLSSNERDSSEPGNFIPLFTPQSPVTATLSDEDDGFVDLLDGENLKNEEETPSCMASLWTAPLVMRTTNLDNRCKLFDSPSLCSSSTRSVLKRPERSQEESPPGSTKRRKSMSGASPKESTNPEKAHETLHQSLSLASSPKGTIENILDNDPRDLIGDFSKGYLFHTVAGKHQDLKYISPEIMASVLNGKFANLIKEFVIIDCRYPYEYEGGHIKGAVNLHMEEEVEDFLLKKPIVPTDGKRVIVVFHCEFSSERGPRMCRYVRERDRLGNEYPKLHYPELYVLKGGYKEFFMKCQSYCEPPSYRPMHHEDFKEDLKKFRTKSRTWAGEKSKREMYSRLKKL

[2] = molecular target: T2, Cycle checkpoint kinase 1 (CHK1), endogenous (human (endogenous in BxPC-3)) (UniProt O14757)
T2 sequence: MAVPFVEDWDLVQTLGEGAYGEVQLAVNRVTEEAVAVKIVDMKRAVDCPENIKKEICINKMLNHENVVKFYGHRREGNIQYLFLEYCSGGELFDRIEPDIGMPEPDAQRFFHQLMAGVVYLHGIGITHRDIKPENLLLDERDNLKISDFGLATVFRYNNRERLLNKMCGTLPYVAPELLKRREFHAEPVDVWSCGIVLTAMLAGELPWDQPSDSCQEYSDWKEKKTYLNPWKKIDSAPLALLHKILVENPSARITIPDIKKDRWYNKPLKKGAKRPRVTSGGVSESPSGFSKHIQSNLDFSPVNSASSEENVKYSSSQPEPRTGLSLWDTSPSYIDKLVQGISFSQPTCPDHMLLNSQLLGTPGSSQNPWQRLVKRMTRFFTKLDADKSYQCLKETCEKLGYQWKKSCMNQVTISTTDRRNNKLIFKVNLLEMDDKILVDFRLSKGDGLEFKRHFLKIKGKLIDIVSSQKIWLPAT

[3] = molecular target: T3, CDC25C, endogenous (human (endogenous in BxPC-3)) (UniProt P30307)
T3 sequence: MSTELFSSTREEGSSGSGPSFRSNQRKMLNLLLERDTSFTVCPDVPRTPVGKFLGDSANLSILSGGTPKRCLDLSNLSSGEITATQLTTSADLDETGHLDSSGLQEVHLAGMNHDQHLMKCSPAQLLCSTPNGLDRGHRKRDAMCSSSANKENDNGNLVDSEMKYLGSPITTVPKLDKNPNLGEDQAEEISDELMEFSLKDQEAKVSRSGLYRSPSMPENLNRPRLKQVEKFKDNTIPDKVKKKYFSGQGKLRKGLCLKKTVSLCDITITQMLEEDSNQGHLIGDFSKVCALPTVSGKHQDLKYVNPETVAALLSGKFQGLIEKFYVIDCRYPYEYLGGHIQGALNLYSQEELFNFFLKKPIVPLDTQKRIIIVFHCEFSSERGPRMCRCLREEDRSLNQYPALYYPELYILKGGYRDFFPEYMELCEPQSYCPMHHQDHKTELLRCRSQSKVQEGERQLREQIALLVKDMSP

Measured: binding

Four-and-a-half LIM domain protein 1 (FHL1), endogenous (from UniProt Q13642-1)
binds: all assays above
